Structures can show the parent of a compound that is named as a salt. Where two headings read alike, the source gives them in different places. The whole screen tested about 3,300 compounds, of which about 95 (3%) showed an effect of 50% or more. Some of the results follow.
Test system: HCoV-229E
Set-up: species or system Huh-7; HTS, protection from HCoV-229E induced cell death, luminescent cell viability (CellCounting-Lite 2.0), inhibition rate
Conditions: 24 h post infection, 1 h compound pre-incubation, 10 µM, inhibitor

Nc1ncnc2c1ncn2[C@@H]1C[C@H](CO)[C@@H](O)[C@H]1O [Aristeromycin]
229E Inhibition rate: 57.5%

OC[C@H]1O[C@H](O[C@H]2[C@H](O)[C@@H](O)[C@H](O)O[C@@H]2CO)[C@H](O)[C@@H](O)[C@@H]1O [Maltose monohydrate]
229E Inhibition rate (229E Inhibition rate, 24 h): 10%

CC(CN)C(=O)O (centres unmarked) [3-Amino-2-methylpropanoic acid]
229E Inhibition rate: 11.3%

CC(O)[C@H](C)[C@H](N)C(=O)O (some centres unmarked) [4-Hydroxyisoleucine]
229E Inhibition rate: 38%

CC1=C2C(=O)O[C@@H](c3ccoc3)[C@]2(C)CCC1 [Fraxinellone]
229E Inhibition rate: 13.5%

CC(C)[C@@H](C)/C=C/[C@@H](C)[C@H]1CC[C@H]2C3=CC=C4C[C@@H](O)CC[C@@]4(C)[C@@H]3CC[C@]12C [Lumisterol]
229E Inhibition rate: 3.7%

COc1cc(-c2oc3cc(O)cc(O)c3c(=O)c2O[C@@H]2O[C@H](CO)[C@@H](O)[C@H](O)[C@H]2O)ccc1O [Isorhamnetin-3-O-glucoside]
229E Inhibition rate: 11.3%

CCC/C=C1/OC(=O)c2ccccc21 [3-Butylidenephthalide]
229E Inhibition rate: 14.3%

CCOC(=O)c1ccc(O)c(O)c1 [Ethyl 3,4-dihydroxybenzoate]
229E Inhibition rate: 26.5%

CN1c2c([nH]c(N)nc2=O)NC[C@@H]1CNc1ccc(C(=O)N[C@@H](CCC(=O)O)C(=O)O)cc1 [Levomefolic acid]
229E Inhibition rate: 12.5%

O=c1cc(-c2ccc(O)cc2)oc2cc(O)ccc12 [7,4'-Dihydroxyflavone]
229E Inhibition rate: 13.2%

CC(C)=CCC[C@](C)(O)[C@H]1CC[C@]2(C)[C@@H]1[C@H](O)C[C@@H]1[C@@]3(C)CC[C@H](O)C(C)(C)[C@@H]3[C@@H](O[C@@H]3O[C@H](CO)[C@@H](O)[C@H](O)[C@H]3O[C@@H]3O[C@H](CO)[C@@H](O)[C@H](O)[C@H]3O)C[C@]12C [Ginsenoside Rf]
229E Inhibition rate: 28.3%

O[C@@H]1CCCC[C@H]1O (relative stereo) [trans-Cyclohexane-1,2-diol]
229E Inhibition rate: 11.9%

CCCCCCCCCCCCCC(=O)O [Myristic acid]
229E Inhibition rate: 13.4%

O=C(O)[C@H]1O[C@@H](Oc2c(O)cc(O)c3c(=O)c(O)c(-c4ccc(O)c(O)c4)oc23)[C@H](O)[C@@H](O)[C@@H]1O [Hibifolin]
229E Inhibition rate: 43.4%

NC(=O)NC1NC(=O)NC1=O (centres unmarked) [Allantoin]
229E Inhibition rate: 34.6%

CC/C=C\CC1=C(C)CCC1=O [cis-Jasmone]
229E Inhibition rate: 17.9%

CN1CCc2cc3c(c4c2C1Cc1ccccc1-4)OCO3 (centres unmarked) [Roemerine]
229E Inhibition rate: 25.9%

O=C(O)C=Cc1ccc(O)cc1 [p-Hydroxycinnamic acid]
229E Inhibition rate: 10.3%

COc1c2ccoc2cc2oc(=O)ccc12 [Bergapten]
229E Inhibition rate: 15.5%

O=c1c(O)c(-c2ccc(O)c(O)c2)oc2cc(O)cc(O)c12 [Quercetin (dihydrate)]
229E Inhibition rate (229E Inhibition rate, 24 h): 24.9%

CCCCCCCCCCCC1=C(O)C(=O)C=C(O)C1=O [Embelin]
229E Inhibition rate: 12.3%

C[C@@H]1CC[C@]2(C(=O)O[C@@H]3O[C@H](CO)[C@@H](O)[C@H](O)[C@H]3O)CC[C@]3(C)C(=CC[C@@H]4[C@@]5(C)CC[C@H](O)[C@@](C)(CO)[C@@H]5CC[C@]43C)[C@@H]2[C@]1(C)O [Pedunculoside]
229E Inhibition rate: 10.8%

CCCCCCCCCCCCCCCCCCOC(=O)[C@@]1(C)CC[C@]2(C)CC[C@]3(C)C(=CC(=O)[C@@H]4[C@@]5(C)CC[C@H](O)C(C)(C)[C@@H]5CC[C@]43C)[C@@H]2C1 [Stearyl glycyrrhetinate]
229E Inhibition rate: 12.1%

Cc1cc(O)c2c(c1)C(=O)c1cccc(O[C@@H]3O[C@H](CO)[C@@H](O)[C@H](O)[C@H]3O)c1C2=O [Chrysophanol 8-O-glucoside]
229E Inhibition rate: 8.4%

COc1cccc(CC(=O)O)c1 [3-Methoxyphenylacetic acid]
229E Inhibition rate: 12.5%

O=C(O)CCc1ccccc1 [Hydrocinnamic acid]
229E Inhibition rate: 12.3%

O=C(O)/C=C\C(=O)O [Maleic Acid]
229E Inhibition rate: 11%

CC1(C)CCC[C@]2(C)[C@@H](C=O)C(C=O)=CC[C@@H]12 [Polygodial]
229E Inhibition rate: 16.5%

O=C(O)[C@@H]1CCCCN1 [L-Pipecolic acid]
229E Inhibition rate: 10.8%

Oc1ccc([C@H]2Oc3cc(O)cc(O)c3C[C@@H]2O)cc1 [(+)-Afzelechin]
229E Inhibition rate: 9.4%

O=c1cc(-c2ccc(O)cc2)oc2cc(O)c(O)c(O)c12 [Scutellarein]
229E Inhibition rate: 21.2%

Cc1cc(C)c(O)c(C)c1 [2,4,6-Trimethylphenol]
229E Inhibition rate: 22.3%

CO[C@H]1[C@H](O)[C@@H](O)[C@@H](O)[C@H](O)[C@@H]1O [D-Pinitol]
229E Inhibition rate: 9.1%

COc1ccc2cc3[n+](cc2c1OC)CCc1cc2c(cc1-3)OCO2 [Berberine (chloride)]
229E Inhibition rate (229E Inhibition rate, 24 h): 12.1%

O=c1c2cc(O)c(O)cc2oc2c([C@@H]3O[C@H](CO)[C@@H](O)[C@H](O)[C@H]3O)c(O)cc(O)c12 [Isomangiferin]
229E Inhibition rate: 6%

O=C(O)c1ccc(C(=O)O)o1 [2,5-Furandicarboxylic acid]
229E Inhibition rate: 7.6%

CCOCc1ccccc1 [(Ethoxymethyl)benzene]
229E Inhibition rate: 13.6%

O=C(O)c1cccnc1C(=O)O [Quinolinic acid]
229E Inhibition rate: 13.4%

O=C(O)c1ccccc1 [Benzoic acid]
229E Inhibition rate: 11.6%

O=c1ccc2cc(O)ccc2o1 [6-Hydroxycoumarin]
229E Inhibition rate: 10.6%

O=C(O)/C=C/c1ccccc1 [trans-Cinnamic acid]
229E Inhibition rate (229E Inhibition rate, 24 h): 18.6%

Cn1cc(C(N)=O)ccc1=O [Nudifloramide]
229E Inhibition rate: 9.5%

COc1cc2c(cc1OC)[C@@H]1Cc3ccc(OC)c(OC)c3C[N@@+]1([O-])CC2 [(-)-Corynoxidine]
229E Inhibition rate: 22.2%

COc1cc(O)c2c(=O)c3c(O[C@@H]4O[C@H](CO)[C@@H](O)[C@H](O)[C@H]4O)ccc(O)c3oc2c1 [Swertianolin]
229E Inhibition rate: 6.8%

CC(CC(=O)O)CC(=O)O [3-Methylglutaric acid]
229E Inhibition rate: 5.4%

N[C@H]1[C@H](O[C@H]2[C@H](O)[C@@H](N)C(O)O[C@@H]2CO)O[C@H](CO)[C@@H](O)[C@@H]1O (some centres unmarked) [Chitobiose (dihydrochloride)]
229E Inhibition rate: 11.5%

CCCCCCCCCCCC(=O)OC [Methyl laurate]
229E Inhibition rate: 7.9%

CC(C)=CCC[C@](C)(O)[C@@H]1CC=C(C)CC1 [alpha-Bisabolol]
229E Inhibition rate (229E Inhibition rate, 24 h): 45.5%

Cc1ccn(C)n1 [1,3-Dimethylpyrazole]
229E Inhibition rate: 10.9%

C[C@H](CC[C@@H](O[C@@H]1O[C@H](CO[C@@H]2O[C@H](CO)[C@@H](O)[C@H](O)[C@H]2O)[C@@H](O)[C@H](O)[C@H]1O[C@@H]1O[C@H](CO)[C@@H](O)[C@H](O)[C@H]1O)C(C)(C)O)[C@H]1CC[C@@]2(C)[C@@H]3CC=C4[C@@H](CC[C@H](O[C@@H]5O[C@H](CO)[C@@H](O)[C@H](O)[C@H]5O)C4(C)C)[C@]3(C)[C@H](O)C[C@]12C [Siamenoside I]
229E Inhibition rate: 25.3%

CCCCCCCCCCCCC/C=C/[C@@H](O)[C@@H](N)COP(=O)(O)O [Sphingosine-1-phosphate]
229E Inhibition rate: 19.6%

CC1(C)[C@@H](O[C@H]2O[C@H](C(=O)O)[C@@H](O)[C@H](O)[C@H]2O[C@@H]2O[C@H](C(=O)O)[C@@H](O)[C@H](O)[C@H]2O)CC[C@]2(C)[C@H]3C(=O)C=C4[C@@H]5C[C@@](C)(C(=O)O)CC[C@]5(C)CC[C@@]4(C)[C@]3(C)CC[C@@H]12 [Dipotassium glycyrrhizinate]
229E Inhibition rate (229E Inhibition rate, 24 h): 8.5%

Cc1cc(O)c2c(c1)C(=O)c1cc(O)cc(O[C@@H]3O[C@H](CO)[C@@H](O)[C@H](O)[C@H]3O)c1C2=O [Emodin-8-glucoside]
229E Inhibition rate: 7.8%

COc1cc2oc(=O)ccc2cc1O [Isoscopoletin]
229E Inhibition rate: 0%

N[C@H]1C(O)O[C@H](CO)[C@@H](O)[C@@H]1O (some centres unmarked) [Glucosamine (hydrochloride)]
229E Inhibition rate (229E Inhibition rate, 24 h): 9.7%

COC(=O)c1ccco1 [Methyl 2-furoate]
229E Inhibition rate: 0%

COC1=CC(=O)C=C(OC)C1=O [2,6-Dimethoxy-1,4-benzoquinone]
229E Inhibition rate: 4.1%

OC[C@H]1O[C@@H](Oc2cc(O)cc(/C=C/c3ccc(O)c(O)c3)c2)[C@H](O)[C@@H](O)[C@@H]1O [Astringin]
229E Inhibition rate: 40.4%

CC(C)=CCC[C@@](C)(O)[C@H]1CC[C@]2(C)[C@@H]1[C@H](O)C[C@@H]1[C@@]3(C)CC[C@H](O[C@@H]4O[C@H](CO)[C@@H](O)[C@H](O)[C@H]4O[C@@H]4O[C@H](CO)[C@@H](O)[C@H](O)[C@H]4O[C@@H]4OC[C@@H](O)[C@H](O)[C@H]4O)C(C)(C)[C@@H]3CC[C@]12C [Notoginsenoside Ft1]
229E Inhibition rate: 4.8%

COc1cc(/C=C/C(=O)O)ccc1O [Ferulic acid]
229E Inhibition rate (229E Inhibition rate, 24 h): 13.6%

O=C1O[C@H]([C@@H](O)CO)[C@H](O)[C@@H]1O [L-Gulono-1,4-lactone]
229E Inhibition rate: 7.2%

COc1ccc(-c2coc3cc(O)c(OC)c(O)c3c2=O)cc1O [Iristectorigenin A]
229E Inhibition rate: 24.5%

O=c1ccn([C@@H]2O[C@H](COP(=O)(O)O)[C@@H](O)[C@H]2O)c(=O)[nH]1 [Uridine 5'-monophosphate disodium salt]
229E Inhibition rate (229E Inhibition rate, 24 h): 8%

C[N+](C)(C)CCOP(=O)([O-])OC[C@H](O)CO [sn-Glycero-3-phosphocholine]
229E Inhibition rate: 3.7%
